Laboratory results: PubChem BioAssay AID1259266 (Sanger Institute, 2017)
The deposit covers 794 reagents; shown is a part drawn at random. 16 of them (2%) count as active. 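Calls reflect knock-down alone, not drug synergy; viability seems capped at 1 and z-scores at 0.585.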 Reagent sequences are not shown. Not given: the amount of reagent, the time to read-out.

Purpose: 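Find knock-downs that kill LS123 cells or act with anchor drugs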 (primary screen)
Cells: LS123 human colorectal cancer cells
Reagents: siRNA pool against human genes
Treatment: anchor drugs BYL719 (1 µM), cetuximab (5 µg/ml) or trametinib (10 nM), each chosen to barely slow growth alone; DMSO vehicle as the drug-free arm
Measurement: 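Viability relative to non-targeting control pools, replicate mean, with a robust z-score for knock-down alone and synergy scores for each anchor drug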
Scale: robust z-score, knock-down alone: higher = more cells surviving after knock-down; viability, knock-down alone: higher = more viable cells; synergy score with trametinib and synergy score with BYL719 and synergy score with cetuximab: higher = stronger synthetic lethality with drug
Call rule: 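Essential when the robust z-score of the knock-down alone is below -3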
Calls: active = essential (knock-down alone cuts viability); inactive = no change

gene | PubChem SID | robust z-score, knock-down alone | viability, knock-down alone (fraction of control) | synergy score with trametinib | synergy score with BYL719 | synergy score with cetuximab | activity call
ALPK1 | SID152152286 | 0.585 | 1 | -0.0733 | -0.084 | 0.0589 | inactive
DYRK1B | SID56478878 | -0.272 | 0.949 | -0.0172 | -0.183 | -0.0625 | inactive
RIOK1 | SID56479042 | 0.585 | 1 | -0.0685 | -0.0477 | 0.0799 | inactive
ARID1A | SID152147093 | 0.585 | 1 | 0.0114 | -0.139 | -0.0122 | inactive
STK33 | SID56479053 | 0.585 | 1 | 0.0244 | -0.00243 | -0.0122 | inactive
MECOM | SID135621208 | 0.585 | 1 | -0.165 | -0.159 | -0.0122 | inactive
DCK | SID56479088 | 0.14 | 0.974 | 0.0775 | -0.159 | -0.00785 | inactive
STK31 | SID135620977 | 0.585 | 1 | -0.0944 | -0.1 | -0.0122 | inactive
CSNK1D | SID56478658 | 0.585 | 1 | 0.0414 | -0.0233 | -0.0122 | inactive
BRD2 | SID135620911 | 0.585 | 1 | -0.186 | -0.159 | -0.0122 | inactive
FGFR1 | SID135620619 | 0.585 | 1 | -0.0683 | -0.159 | -0.0122 | inactive
CIT | SID56478810 | -0.207 | 0.953 | -0.0699 | -0.00661 | 0.00406 | inactive
MAP4K5 | SID56478702 | -1.6 | 0.87 | -0.137 | -0.206 | -0.0701 | inactive
MAP3K2 | SID135620706 | 0.585 | 1 | -0.185 | -0.159 | -0.0122 | inactive
RPS6KA5 | SID135620863 | -0.941 | 0.909 | -0.0697 | -0.0906 | -0.0532 | inactive
FGFRL1 | SID135622448 | 0.317 | 0.984 | -0.0558 | 0.0278 | -0.000133 | inactive
PIK3C2B | SID56479135 | -0.0172 | 0.964 | -0.0425 | -0.0278 | -0.0124 | inactive
CDK5 | SID56478599 | 0.585 | 1 | -0.0796 | -0.0664 | -0.0122 | inactive
BRAF | SID152153735 | -0.27 | 0.949 | 0.125 | -0.0486 | 0.0368 | inactive
CHUK | SID152149746 | 0.585 | 1 | -0.186 | -0.159 | -0.0122 | inactive

Sorted by “synergy score with trametinib” (ascending): some entries from above
gene | PubChem SID | robust z-score, knock-down alone | viability, knock-down alone (fraction of control) | synergy score with trametinib | synergy score with BYL719 | synergy score with cetuximab | activity call
RPS6KA5 | SID135620863 | -0.941 | 0.909 | -0.0697 | -0.0906 | -0.0532 | inactive
FGFRL1 | SID135622448 | 0.317 | 0.984 | -0.0558 | 0.0278 | -0.000133 | inactive
PIK3C2B | SID56479135 | -0.0172 | 0.964 | -0.0425 | -0.0278 | -0.0124 | inactive
